Measured values published in publication PMC12040169 (PLOS Biology, 2025).
The list shows a part of the results.

system: T1, CTL2-GFP (C. trachomatis L2/434/Bu, GFP-expressing); design: species or system HeLa; Intracellular C. trachomatis growth in HeLa cells, bulk GFP fluorescence relative to DMSO; details: bulk GFP, single well; 28.5 h, 10 µM; inhibitor
T1 construct: L2/434/Bu, GFP-expressing

| SMILES | % of control remaining |
| --- | --- |
| Fc1ccc(CN2CC3CCCC(C2)C3N2CCOCC2)cc1F (stereo not shown) [CBK282270] | 87.7751% |
| NS(=O)(=O)c1ccc(NC(=S)NNC(=S)Nc2ccc(F)cc2F)cc1 [CBK267102] | 140.122% |
| Cn1cncc1CN(Cc1ccccc1)C1CC(C)(C)NC(C)(C)C1 [CBK283226] | 131.828% |
| COc1ccc(OC)c(-c2nc(Nc3ccc(Cl)cc3Cl)sc2CC(=O)O)c1 [CBK264175] | 93.3723% |
| CN(CC1COc2ccccc2O1)C(=O)CC1CCN(C(=O)CC2CCCCC2)CC1 (stereo not shown) [CBK286265] | 116.887% |
| O=C1C=C([C@@H]2O[C@H](CO)[C@H](O)C2O)C(=O)N1 (stereo partly shown) [CBK201255] | 134.772% |
| COc1ccc(CC(=O)NC(c2nnc3ccccn23)C(C)C)cc1 (stereo not shown) [CBK304607] | 112.462% |
| CCOc1ccccc1-c1noc(-c2nn(-c3ccc(C)cc3)ccc2=O)n1 [CBK288597] | 113.581% |
| CC1CCCN(C(=O)c2coc(COc3ccc(F)cc3)n2)C1 (stereo not shown) [CBK306874] | 132.464% |
| O=C(O)c1ccc2c(c1)CCN2S(=O)(=O)c1ccc(S(=O)(=O)N2CCOCC2)cc1 [CBK295625] | 148.412% |
| CCCCCC/C=C/c1cnc2nc(NC(=O)NCC)ccc2c1 [CBK061880] | 92.6632% |
| O=C(O)CCN1C(=O)c2ccc(Oc3ccc([N+](=O)[O-])cc3)cc2C1=O [CBK263357] | 100% |
| N/C(=N\c1nonc1N)NC(=O)c1ccccc1 [CBK006756] | 109.395% |
| COc1ccc(C(=O)O)cc1NC(=S)NC(=O)c1ccc(-c2ccccc2)cc1 [CBK265064] | 127.598% |
| CCCC/C=C/c1cnc(N)c(-c2ccc(O)cc2)n1 [CBK064068] | 160.994% |
| CC(C)[C@H]1CN(Cc2ccco2)CCN1C(=O)NCc1ccccc1 [CBK284274] | 98.5221% |
| Cn1cc(C2CNCCN2C(=O)c2csc3ccccc23)cn1 (stereo not shown) [CBK304324C] | 126.774% |
| CCCNC(=O)C[C@@H]1CCN(S(=O)(=O)c2c(C)noc2C)C[C@@H]1CC [CBK288780] | 126.601% |
| CC(C)Oc1cc(Br)cc(C(=O)N2CCC(C(=O)O)C2)c1 (stereo not shown) [CBK304268C] | 132.382% |
| COc1ccc(OC(=O)c2ccc3ncccc3c2)cc1 [CBK083572] | 173.634% |

| SMILES | % of control remaining |
| --- | --- |
| CCN(NC(=O)c1cc2cccc(OC)c2o1)c1ccc(C)cc1 [CBK161484] | 109.318% |
| Cc1onc(-c2c(Cl)cccc2Cl)c1C(=O)N(C)C [CBK160437] | 128.727% |
| Nc1nonc1NC(=O)c1ccccc1Cl [CBK019040] | 105.535% |
| O=C(NC1CCCCC1)c1cc(Br)cnc1NCc1cccnc1 [CBK076439] | 108.285% |
| O=C1C2CCCCN2C(=O)N1c1cccnc1 (stereo not shown) [CBK162359] | 113.219% |
| Nc1nccnc1C(=O)Oc1ccccc1 [CBK090311] | 158.062% |
| CC1CCCCC1NC(=O)Cn1c(=O)n(C(C)C)c2ncccc21 (stereo not shown) [CBK283697] | 160.48% |
| O=C1N(CN2CCN(c3cccc(C(F)(F)F)c3)CC2)c2ccccc2C12OCCCO2 [CBK294461] | 111.337% |
| CC1(c2cc(F)ccc2F)NC(=O)N(c2ccncc2)C1=O (stereo not shown) [CBK291253] | 150.22% |
| Cc1ccc(NC(=O)c2cnc3n(c2=O)CCS3)cc1 [CBK287376] | 129.199% |
| CC(C)N1CCC[C@H]1c1nc(-c2ccc(-c3cncnc3)nc2)no1 [CBK288892] | 109.198% |
| Fc1ccc(-c2cncc(NCc3ccco3)n2)c(F)c1 [CBK065834] | 164.239% |
| Cc1ccc(/C=N/n2c(S)nnc2COc2ccccc2)o1 [CBK265244] | 111.246% |
| Cc1nnc2sc(-c3cccc(NC(=S)NC(=O)c4cc5ccccc5o4)c3)nn12 [CBK267282] | 123.538% |
| CCC(CO)Nc1cncc(-c2ccc(C(N)=O)cc2)n1 (stereo not shown) [CBK065577] | 99.4555% |
| S=c1[nH]nc(-c2ccc(Cl)cc2)n1-c1cccnc1 [CBK086427] | 110.796% |
| COc1ccc(Cl)cc1NC(=O)C(=O)NCc1ccccn1 [CBK263837] | 100% |
| CCCCn1c(SCc2nc(-c3cccc(Cl)c3)no2)n[nH]c1=O [CBK295356] | 123.907% |
| CCN1CCN(C(=O)Cc2ccc(OC)cc2)C(Cc2ccc(-c3ccncc3)cc2)C1=O (stereo not shown) [CBK285804] | 99.5027% |
| CCC(CC)C(=O)Nc1ccc([C@@H](O)[C@H]2COCC(=O)N2Cc2ccc(OC)cc2)cc1 [CBK289677] | 125.735% |

No new results follow: entries from further up.

| SMILES | % of control remaining |
| --- | --- |
| S=c1[nH]nc(-c2ccc(Cl)cc2)n1-c1cccnc1 [CBK086427] | 110.796% |
| COc1ccc(Cl)cc1NC(=O)C(=O)NCc1ccccn1 [CBK263837] | 100% |
